# Test results from the supplement of paper PMC10338343.
# ± gives the standard deviation. Some of the results follow. Many of these values have a large error.
# Tested on: EfPiwi piRISC loaded with L1MC piRNA (26 nt)
# Experiment: pre-steady-state target cleavage rate (min^-1); guide: L1MC piRNA 5'p-UAACUAAAUACUAUGCAAGCUGUAGG; MIWI and MILI are mouse PIWI proteins and EfPiwi is from a freshwater sponge; tags in brackets are library labels; higher = faster piRNA-guided slicing of the target
# Conditions: auxiliary factor: none (no Gtsf1)
# Summary of the method: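 Three pooled Cleave-'n-Seq trials supplied the data, with k3 capped at 0.0001 min^-1. In each, […] transcribed, DNA-blocked target RNA library and 1 nM active affinity-purified piRISC with one synthetic guide reacted in HEPES–potassium acetate buffer at 33 °C for 0–8 or 0–960 min, with or without 500 nM GTSF1 partner protein. Uncleaved targets were sequenced and normalised to depth and to weakly complementary targets. A burst-and-steady-state fit provided the pre-steady-state cleavage rate.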
row,Sequence,pre-steady-state target cleavage rate
1,UCCUGCUACAGGUUGCAAAGUAUUUAGUUA,0.00132 ± 0.0071
2,UCCUGGUACGCUUGCAUAGUAUUUAGUUA,0.000262 ± 0.05
3,UCCUGGAACUGCUUGCAUUGUAUUUAGUUA,0.000382 ± 0.021
4,UCCUGGAAGAGCUUGCAUAGUAUUUAGUUA,0.0015 ± 0.0068
5,UCCUGGAACAGCUUGCAUUGUAUUUAGAUA,0.000283 ± 0.029
6,UCCUCCAACAGCAUGCAUAGUAUUUAGUUA,0.001 ± 0.0071
7,UCCUGGAUCUGCUUGCAUAGUAUUUAGAUA,0.00041 ± 0.02
8,UCCUGGAUCAGCUUGCAAACUAUUUAGUUA,0.000388 ± 0.019
9,UCCUGGUACAGCUUGCAUAGUAUAUACUUA,< 0.0001
10,UCCUCCUACAGCUUGCAUAGAAUUUAGUAA,0.00056 ± 0.0076
11,UCCUGGUACACCUUGCAAAGUAUUUAGUUA,0.000268 ± 0.033
12,UCCUGGAUGAGCUUGCAUUGUAUUUACUUA,0.0003 ± 0.022
13,UCCUGGAACAGCUAGCAAAGUAUUUAGUUA,0.000785 ± 0.0097
14,UCCUGGUACAGCUUGCAUACUAUUUAGAUA,0.000201 ± 0.042
15,UCCUGGAUGAGCUUGCAUACUAUUUAGUUA,0.00156 ± 0.0061
16,UCCUGGUACAGCUUGCAUAGUAAUUUGUUA,0.000531 ± 0.018
17,UCCUGGAUGUGCUUGCAUAGUUUUUUGUUA,0.000246 ± 0.043
18,UCCUGGAUGUGCUUGCAUAGUAUGUAGUUA,0.00121 ± 0.0079
19,UCCUGGAUGUGCUUGCAUAGUAUUUAGUGUA,0.00114 ± 0.01
20,UCCUGGAUCAGCUUGCAUUGUAUUUAGUUA,0.00127 ± 0.0078
21,UCCUGGAUGUGCUUGCAUUGUAUAUAGUUA,0.000377 ± 0.019
22,UCCUGGAUGAGCUUGCAUACUAUUUAGAAA,0.000387 ± 0.019
23,UCCUGGAUCAGCUUGCAUAGUAUUGAGUUA,0.00183 ± 0.006
24,UCCUGGAAGAGCUUGCUUAGUAUUUAGUUA,0.00878 ± 0.005

# 2 entries from above, with tabs.
row	Sequence	pre-steady-state target cleavage rate
17	UCCUGGAUGUGCUUGCAUAGUUUUUUGUUA	0.000246 ± 0.043
18	UCCUGGAUGUGCUUGCAUAGUAUGUAGUUA	0.00121 ± 0.0079
